# Literature values as cited in patent US7544701B2, “Sulfonyldihydrobenzimidazolone compounds as 5-hydroxytryptamine-6 ligands” (Wyeth, priority 2003, dated 2009).
# At least one structure is not confirmed: it was looked up by name or label, or the drawing left a doubt.
# Test system: 5-HT6 receptor subtype
# Conditions: background statement; cited from earlier work
structure (smiles),measurement,value
CN1CCN(C2=Nc3cc(Cl)ccc3Nc3ccccc32)CC1 [Clozapine],affinity for the 5-HT6 receptor subtype,high affinity
